{
  "source": "patent US20100216761A1",
  "about": "“NOVEL AZETIDINONES USEFUL AS INHIBITORS OF ELASTASE” (priority 2007, published 2010)",
  "note": "The name of at least one read-out is uncertain.",
  "data": [
    {"target": "T1, Human Leukocyte Elastase (HLE) (Homo sapiens, UniProt P08246)", "T1 construct": "The PMN lysates were prepared by isolating human neutrophils from whole blood; from tissue; host or cells: human neutrophils (PMN) isolated from whole blood, lysed by sonication in PBS", "T1 sequence (P08246 30-267)": "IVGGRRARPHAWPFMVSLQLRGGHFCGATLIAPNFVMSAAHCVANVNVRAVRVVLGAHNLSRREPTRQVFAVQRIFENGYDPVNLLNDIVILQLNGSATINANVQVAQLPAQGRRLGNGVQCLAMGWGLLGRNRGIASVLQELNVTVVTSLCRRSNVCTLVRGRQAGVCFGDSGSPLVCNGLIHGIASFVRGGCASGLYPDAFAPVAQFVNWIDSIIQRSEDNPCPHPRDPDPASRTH", "assay": "HLE time-dependent reactivation (off-rate) assay", "assay_type": "biochemical", "settings": "reactivation of inactivated HLE; filtrate kept at 37° C.", "method": "An important and desirable aspect of these mechanism-based HLE inhibitors is also the extent to which the enzyme remains inactivated or, in other words, the rate at which the modified inhibitor comes off the enzyme after the inactivation event has occurred and which then gives back the active HLE enzyme (see Note 2c and 4). This property was assessed in a time-dependent reactivation assay and the results were calculated as a first-order rate constant expressed as their half-lives in hours (t1/2). […] Under head-to-head conditions (n=2) with Examples 1 and 3, the off-rate for the comparator Compound #290 of U.S. Pat. No. 5,591,737 was determined to be 7.1 hrs, or about 2.5-2.6 times as fast.\nElastase was incubated with 100-fold molar excess of inhibitor in TES buffer (0.045M TES, 0.45M NaCl, pH 7.5, 0.1% BSA) at room temperature for 60 minutes. After the incubation was complete, the samples were loaded onto prepared columns (Micro BioSpin Chromatography Columns-Bio-Gel P-6 Columns Bio-Rad Cat# 732-6221; prepared as directed by the manufacturer). The columns were centrifuged for 4 minutes at 1000 g. The filtrate was collected and maintained at 37° C. At specific time points, the filtrate was monitored for elastase activity by adding the filtrate to 1 mM substrate (MeoSucc-AAPV-pNA; Elastin Products Cat# FH237) in TES buffer (0.045M TES, 0.45M NaCl, pH 7.5) and measuring the absorbance at 410 nm. The absorbance was monitored every 10 seconds for 5 minutes. The difference in the rates of pNA formation in the absence of compound was used to calculate the % bound in the presence of compound.\nSee Note 2c reference for a similar assay description and discussion of the off-rate for related beta-lactam time-dependent HLE inhibitors.", "units": {"Off-Rate t1/2": "h"}, "values": [
      {"smiles": "CCC[C@@H](NC(=O)N1C(=O)C(CC)(CC)[C@@H]1Oc1ccc(C(=O)N(C)CCN(C)C)cc1)c1ccc(OC)cc1", "note": "[Compound #290, reference compound]", "Off-Rate t1/2": 7.1},
      {"smiles": "CCC[C@@H](NC(=O)N1C(=O)C(CC)(CC)[C@@H]1Oc1ccc(C(=O)N(CC)CCN(C)C)cc1)c1ccc(OC(F)(F)F)cc1", "note": "[Example 1, 2-(S)-[4-(((2-(Dimethylamino)ethyl)ethylamino)carbonyl)phenoxy]-3,3-diethyl-N-[1-(R)-(4-(trifluoromethoxy)phenyl)butyl]-4-oxo-1-azetidinecarboxamide]", "Off-Rate t1/2": 17.4},
      {"smiles": "CCC[C@@H](NC(=O)N1C(=O)C(CC)(CC)[C@@H]1Oc1ccc(C(=O)N(CC)CCN(C)C)cc1)c1ccc(C(F)(F)F)cc1", "note": "[Example 3, 2-(S)-[4-(((2-(Dimethylamino)ethyl)ethylamino)carbonyl)phenoxy]-3,3-diethyl-N-[1-(R)-(4-(trifluoromethyl)phenyl)butyl]-4-oxo-1-azetidinecarboxamide]", "Off-Rate t1/2": 18.4}
    ]}
  ]
}
